We go through ten compounds from PubChem BioAssay AID328 (DTP/NCI, 2004).

The list does not hold the whole screen: it covers a few groups of compounds. Other doses and runs of a compound may be missing. T/C: endpoint of the treated group in % of that of the vehicle group. Some entries give survivors of the animals treated and no T/C: the source holds a T/C of zero for them, seemingly a mark for toxic or unscored doses. Some survivor counts are full or nearly so, which does not show that the dose was tolerated: survival well below the control is almost never listed, so the zero probably covers shortened survival too. Survivors were counted at the toxicity check, usually on the fifth day, unless a day is given; later deaths do not show. Schedules are NCI's codes, read here as Q, the interval in days (D) or hours (H), X, the number of doses. Signs of the kind (2×) give the number of equal values in this list. Where survival is the endpoint, the PubChem record calls one and a half times the control and up active, and a quarter to a half above the control has no call in these data; cut-offs in other NCI protocols can differ. Some T/C values carry the count of animals alive at the toxicity check (mostly the fifth day); where neither a count nor a note follows, no animal had died by that day. Some entries hold several experiments; the values are given in rising order. Some entries show no survivor count and are marked so; the dose need not have been tolerated.

This test deals with BDF1 mice, P388 leukemia ip, median survival T/C. Description: NCI In Vivo Anticancer Drug Screen. Data for tumor model P388 Leukemia (intraperitoneal) in B6D2F1 (BDF1) mice. Particulars: T/C endpoint: median survival time, higher T/C = longer survival. In short, it runs like this:
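Vehicle-dosed animals serve as the reference; survival of compound-dosed, tumour-implanted mice is divided by it.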

Setting [1] is: dose: 12.5 mg/kg/injection, schedule: Q01DX009 (ip), vehicle: saline.
The mark [2] stands for this setting: dose: 25.0 mg/kg/injection, schedule: Q01DX009 (ip), vehicle: saline.
The mark [3] stands for this setting: dose: 50.0 mg/kg/injection, schedule: Q01DX009 (ip), vehicle: saline.
[4] abbreviates: dose: 50.0 mg/kg/injection, schedule: Q04DX003 (ip), vehicle: Klucel (hydroxypropylcellulose) (HPC).
Where [5] appears, read: dose: 50.0 mg/kg/injection, schedule: Q01DX009 (ip), vehicle: saline with Tween-80.
The mark [6] stands for this setting: dose: 100.0 mg/kg/injection, schedule: Q01DX009 (ip), vehicle: saline with Tween-80.
The mark [7] stands for this setting: dose: 200.0 mg/kg/injection, schedule: Q01DX009 (ip), vehicle: saline with Tween-80.
Where [8] appears, read: dose: 50.0 mg/kg/injection, schedule: Q01DX009 (ip), vehicle: Klucel (hydroxypropylcellulose) (HPC).

As to `O[C@H](CNCCCl)[C@H](O)CNCCCl`, the T/C is, setting by setting: (dose: 5.0 mg/kg/injection, schedule: Q04DX003 (ip), vehicle: saline) 187 % of control; (dose: 5.5 mg/kg/injection, schedule: Q01DX008 (ip), vehicle: saline) 183 % of control; (dose: 8.3 mg/kg/injection, schedule: Q01DX008 (ip), vehicle: saline) 250 % of control; (dose: 10.0 mg/kg/injection, schedule: Q04DX003 (ip), vehicle: saline) 212 % of control; (dose: 12.5 mg/kg/injection, schedule: Q01DX008 (ip), vehicle: saline) 250 % of control; (dose: 14.0 mg/kg/injection, schedule: Q04DX003 (ip), vehicle: saline) 227 % of control. The T/C (dose: 18.7 mg/kg/injection, schedule: Q01DX008 (ip), vehicle: saline) was 250 % of control; the T/C (dose: 20.0 mg/kg/injection, schedule: Q04DX003 (ip), vehicle: saline) was 245 % of control; the T/C (dose: 21.0 mg/kg/injection, schedule: Q04DX003 (ip), vehicle: saline) is 268 % of control; the T/C (dose: 22.0 mg/kg/injection, schedule: Q04DX003 (ip), vehicle: saline) was 260 % of control; the T/C under setting [2] was 118 % of control; the T/C (dose: 33.0 mg/kg/injection, schedule: Q04DX003 (ip), vehicle: saline) was 104 [5 of 6 alive] and 245 % of control [5 of 6 alive]. The T/C reads like this: (dose: 50.0 mg/kg/injection, schedule: Q04DX003 (ip), vehicle: saline sonified) 300 % of control; (dose: 50.0 mg/kg/injection, schedule: Q04DX003 (ip), vehicle: saline) 260 and 272 % of control; (dose: 100.0 mg/kg/injection, schedule: Q04DX003 (ip), vehicle: saline sonified) 135 % of control. In addition, the survivor count is, setting by setting: under setting [1], 6 of 6; under setting [2], 6 of 6; under setting [3], 6 of 6 (2×); (dose: 75.0 mg/kg/injection, schedule: Q04DX003 (ip), vehicle: saline) 6 of 6 (2×); (dose: 100.0 mg/kg/injection, schedule: Q01DX009 (ip), vehicle: saline) 4 of 6; (dose: 200.0 mg/kg/injection, schedule: Q04DX003 (ip), vehicle: saline sonified) 6 of 6.

With `C1CCC(NC2CCCCC2)CC1.CC(C)(Oc1ccc(N(CCCl)CCCl)cc1)C(=O)O`, the T/C runs as follows: (dose: 0.48 mg/kg/injection, schedule: Q04DX003 (ip), vehicle: Klucel (hydroxypropylcellulose) (HPC)) 104 % of control; (dose: 0.72 mg/kg/injection, schedule: Q04DX003 (ip), vehicle: Klucel (hydroxypropylcellulose) (HPC)) 125 % of control; (dose: 1.1 mg/kg/injection, schedule: Q04DX003 (ip), vehicle: Klucel (hydroxypropylcellulose) (HPC)) 150 % of control; (dose: 1.7 mg/kg/injection, schedule: Q04DX003 (ip), vehicle: Klucel (hydroxypropylcellulose) (HPC)) 155 % of control; (dose: 2.6 mg/kg/injection, schedule: Q04DX003 (ip), vehicle: Klucel (hydroxypropylcellulose) (HPC)) 136 % of control; (dose: 4.0 mg/kg/injection, schedule: Q04DX003 (ip), vehicle: Klucel (hydroxypropylcellulose) (HPC)) 154 % of control. The T/C runs as follows: (dose: 6.1 mg/kg/injection, schedule: Q04DX003 (ip), vehicle: Klucel (hydroxypropylcellulose) (HPC)) 129 % of control; (dose: 9.2 mg/kg/injection, schedule: Q04DX003 (ip), vehicle: Klucel (hydroxypropylcellulose) (HPC)) 116 % of control; under setting [1], 220 % of control; under setting [2], 245 % of control; (dose: 33.0 mg/kg/injection, schedule: Q04DX003 (ip), vehicle: Klucel (hydroxypropylcellulose) (HPC)) 272 and 290 % of control; under setting [3], 250 % of control. For the same compound, the T/C reads like this: under setting [4], 205, 272, 300 % of control; (dose: 75.0 mg/kg/injection, schedule: Q04DX003 (ip), vehicle: Klucel (hydroxypropylcellulose) (HPC)) 163 [5 of 6 alive] and 280 % of control. Moreover, the survivor count by setting is: (dose: 100.0 mg/kg/injection, schedule: Q04DX003 (ip), vehicle: Klucel (hydroxypropylcellulose) (HPC)) 6 of 6; (dose: 200.0 mg/kg/injection, schedule: Q04DX003 (ip), vehicle: Klucel (hydroxypropylcellulose) (HPC)) 3 of 6.

`COc1ccc2nccc(C[C@@H]3CC4CCN3CC4)c2c1.O=[N+]([O-])c1cc([N+](=O)[O-])c(O)c([N+](=O)[O-])c1`: the T/C (dose: 100.0 mg/kg/injection, schedule: Q01DX001 (ip), vehicle: saline with Tween-80) is 99 % of control [survivor count not shown]; the T/C (dose: 200.0 mg/kg/injection, schedule: Q01DX001 (ip), vehicle: saline with Tween-80) was 91 % of control [survivor count not shown]; the T/C (dose: 400.0 mg/kg/injection, schedule: Q01DX001 (ip), vehicle: saline with Tween-80) was 91 % of control [survivor count not shown].

`CCOCCOCCSP(C)(=O)OC(C)C` (centres undefined): under “dose: 3.12 mg/kg/injection, schedule: Q01DX005 (ip), vehicle: saline”, the T/C was 97 % of control.

Turning to `CCN(CC)P1OCC(C)O1` (centres undefined), the T/C was 109 % of control under setting [5], 100 % of control under setting [6] and 91 % of control under setting [7].

For `CCCP(=O)(N(C)C)N(C)C`, the T/C by setting is: under setting [5], 93 % of control [survivor count not shown]; under setting [6], 96 % of control [survivor count not shown]; under setting [7], 104 % of control [survivor count not shown].

With `CN(Nc1c([N+](=O)[O-])cc([N+](=O)[O-])cc1[N+](=O)[O-])c1ccccc1`, the T/C by setting is: (dose: 12.5 mg/kg/injection, schedule: Q01DX009 (ip), vehicle: Klucel (hydroxypropylcellulose) (HPC)) 100 % of control [survivor count not shown]; (dose: 12.5 mg/kg/injection, schedule: Q04DX003 (ip), vehicle: Klucel (hydroxypropylcellulose) (HPC)) 100 % of control [survivor count not shown]; (dose: 25.0 mg/kg/injection, schedule: Q01DX009 (ip), vehicle: Klucel (hydroxypropylcellulose) (HPC)) 91 % of control [survivor count not shown]; (dose: 25.0 mg/kg/injection, schedule: Q04DX003 (ip), vehicle: Klucel (hydroxypropylcellulose) (HPC)) 91 % of control [survivor count not shown]; under setting [8], 95 % of control [survivor count not shown]; under setting [4], 100 % of control [survivor count not shown]. Moreover, where the note is “dose: 400.0 mg/kg/injection, schedule: Q04DX003 (ip), vehicle: Klucel (hydroxypropylcellulose) (HPC)”, the T/C is 100 % of control [survivor count not shown].

`CC(C)(C)C1CNP(C)(=O)OC1` (centres undefined): the T/C is 99 % of control (dose: 50.0 mg/kg/injection, schedule: Q01DX005 (ip), vehicle: saline) and 99 % of control (dose: 100.0 mg/kg/injection, schedule: Q01DX005 (ip), vehicle: saline). For the same compound, under “dose: 200.0 mg/kg/injection, schedule: Q01DX005 (ip), vehicle: saline”, the survivor count was 0 of 6.

For `CC(=O)N(CCCl)CCCl`, the T/C was 136, 140, 145 % of control (dose: 100.0 mg/kg/injection, schedule: Q04DX003 (ip), vehicle: saline); 145, 186, 190 % of control (dose: 200.0 mg/kg/injection, schedule: Q04DX003 (ip), vehicle: saline); 186 and 218 % of control (dose: 300.0 mg/kg/injection, schedule: Q04DX003 (ip), vehicle: saline). In addition, the survivor count (dose: 400.0 mg/kg/injection, schedule: Q04DX003 (ip), vehicle: saline) is on record as 4 of 6.

`ICCN(CCI)c1ccccc1-c1ccccc1`: the T/C is, setting by setting: under setting [8], 178 % of control; (dose: 100.0 mg/kg/injection, schedule: Q01DX009 (ip), vehicle: Klucel (hydroxypropylcellulose) (HPC)) 171 % of control; (dose: 200.0 mg/kg/injection, schedule: Q01DX009 (ip), vehicle: Klucel (hydroxypropylcellulose) (HPC)) 180 % of control [5 of 6 alive].
